Taken from: PubChem BioAssay AID1159584 (Peter MacCallum Cancer Centre, 2016)
Here is an unselected part of about 18,000 reagents tested. Not stated in the record: the amount of reagent, the time to read-out.

- Test: 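Knock-downs that harm CDH1-null cells more than parental MCF10A cells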 (primary screen)
- System: human MCF10A breast epithelial cells, parental and CDH1-null
- Reagent: siRNA against human genes
- Measurement: 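ATP luminescence (CellTiter-Glo) viability per line relative to mean mock wells over all plates, and the ratio of CDH1-null to parental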
- Scale: CDH1-null / parental viability ratio: higher = CDH1-null cells survive relatively better than parental; CDH1-null viability vs mock: higher = more viable CDH1-null cells; parental viability vs mock: higher = more viable parental cells

| Target gene | CDH1-null / parental viability ratio | CDH1-null viability vs mock (fraction of mock) | parental viability vs mock (fraction of mock) |
| --- | --- | --- | --- |
| NOTCH3 | 1.24 | 1.02 | 0.82 |
| GALNT15 | 0.82 | 0.74 | 0.9 |
| HIVEP2 | 0.78 | 0.86 | 1.1 |
| ALDH8A1 | 0.79 | 0.68 | 0.86 |
| GLTP | 0.86 | 0.72 | 0.84 |
| HDGFL1 | 0.95 | 0.9 | 0.95 |
| DNAH10 | 1.14 | 0.82 | 0.72 |
| FKBP3 | 0.79 | 0.62 | 0.78 |
| DNAH7 | 0.86 | 0.79 | 0.92 |
| CUTC | 1.05 | 1.04 | 0.99 |
| ZMAT5 | 0.84 | 0.74 | 0.88 |
| TM9SF2 | 1.15 | 0.9 | 0.78 |
| CLEC1A | 0.89 | 0.64 | 0.72 |
| ZNF227 | 0.76 | 0.79 | 1.04 |
| DMTF1 | 0.93 | 0.84 | 0.9 |
| XPO6 | 0.92 | 0.9 | 0.98 |
| MTX3 | 0.98 | 1.02 | 1.04 |
| OR1D4 | 1.47 | 0.69 | 0.47 |
| VPS26C | 1.16 | 0.95 | 0.82 |
| OR4P4 | 1.33 | 1.09 | 0.82 |
| TSLIG1 | 0.76 | 0.52 | 0.68 |
| ACAA1 | 1.17 | 1.01 | 0.86 |
| METTL15 | 1.08 | 0.64 | 0.59 |
| EHD3 | 1.1 | 1.07 | 0.97 |
| NOC2L | 0.77 | 0.56 | 0.73 |
| TAB1 | 0.99 | 1.01 | 1.02 |
| USP16 | 1.21 | 0.86 | 0.71 |
| RBPJ | 0.96 | 0.91 | 0.95 |
| PRTG | 1.13 | 0.76 | 0.67 |

5 entries already listed, ordered by “CDH1-null / parental viability ratio”, ascending:
| Target gene | CDH1-null / parental viability ratio | CDH1-null viability vs mock (fraction of mock) | parental viability vs mock (fraction of mock) |
| --- | --- | --- | --- |
| TSLIG1 | 0.76 | 0.52 | 0.68 |
| METTL15 | 1.08 | 0.64 | 0.59 |
| EHD3 | 1.1 | 1.07 | 0.97 |
| ACAA1 | 1.17 | 1.01 | 0.86 |
| OR4P4 | 1.33 | 1.09 | 0.82 |

The results go on.
| Target gene | CDH1-null / parental viability ratio | CDH1-null viability vs mock (fraction of mock) | parental viability vs mock (fraction of mock) |
| --- | --- | --- | --- |
| ZNF385D | 1 | 0.84 | 0.84 |
| KYAT1 | 1.06 | 1 | 0.94 |
| USP30 | 0.92 | 0.66 | 0.72 |
| OR13C5 | 1.05 | 0.86 | 0.82 |
| PTPN5 | 1.18 | 0.66 | 0.56 |
| AIG1 | 0.86 | 0.74 | 0.86 |
| DRD1 | 0.8 | 0.76 | 0.95 |
| STK32B | 1.07 | 0.95 | 0.89 |
| CCSER1 | 0.81 | 0.6 | 0.74 |
| FADD | 0.95 | 0.88 | 0.93 |
| AKIP1 | 1.04 | 0.5 | 0.48 |
| ZNF432 | 1.4 | 0.77 | 0.55 |
| DNAJC15 | 0.96 | 0.77 | 0.8 |
| LRRC52 | 1.17 | 0.91 | 0.78 |
| EXT2 | 0.98 | 1.1 | 1.12 |
| C5orf22 | 0.64 | 0.56 | 0.87 |
| USP22 | 0.97 | 0.74 | 0.76 |
| SLC13A3 | 0.88 | 0.72 | 0.82 |
| GUCA1C | 0.81 | 0.88 | 1.08 |
| CD99 | 0.77 | 0.54 | 0.7 |
| GLG1 | 0.97 | 0.85 | 0.88 |
| ECE1 | 1.23 | 0.7 | 0.57 |
| PDK4 | 0.94 | 0.88 | 0.94 |
| TRPM5 | 1.33 | 0.81 | 0.61 |
| GTF2IRD2B | 1.2 | 0.48 | 0.4 |
| PLP2 | 0.92 | 0.67 | 0.73 |
| TLE5 | 1 | 0.75 | 0.75 |
| OR4A47 | 0.82 | 0.4 | 0.49 |
| MMACHC | 1.01 | 0.76 | 0.75 |
| ATP2A3 | 1 | 1.03 | 1.03 |
| PTCHD1 | 1.21 | 0.94 | 0.78 |
| GUSB | 0.96 | 0.79 | 0.82 |
| TSC22D3 | 1.21 | 0.64 | 0.53 |
| LEO1 | 0.95 | 0.84 | 0.88 |
| OR2F1 | 1.13 | 0.34 | 0.3 |
| ALDH1B1 | 1.1 | 1.06 | 0.96 |
| MFHAS1 | 0.9 | 0.77 | 0.86 |
| RNF144B | 0.76 | 0.61 | 0.8 |
| SEC61A1 | 0.84 | 0.43 | 0.51 |
